{
  "sequences": {"note": "The chains behind the UniProt entries cited, without tags or fusion partners. Where a name states a change or a piece, a line headed by the entry shows the natural chain unless it says otherwise.", "UniProt P04386": "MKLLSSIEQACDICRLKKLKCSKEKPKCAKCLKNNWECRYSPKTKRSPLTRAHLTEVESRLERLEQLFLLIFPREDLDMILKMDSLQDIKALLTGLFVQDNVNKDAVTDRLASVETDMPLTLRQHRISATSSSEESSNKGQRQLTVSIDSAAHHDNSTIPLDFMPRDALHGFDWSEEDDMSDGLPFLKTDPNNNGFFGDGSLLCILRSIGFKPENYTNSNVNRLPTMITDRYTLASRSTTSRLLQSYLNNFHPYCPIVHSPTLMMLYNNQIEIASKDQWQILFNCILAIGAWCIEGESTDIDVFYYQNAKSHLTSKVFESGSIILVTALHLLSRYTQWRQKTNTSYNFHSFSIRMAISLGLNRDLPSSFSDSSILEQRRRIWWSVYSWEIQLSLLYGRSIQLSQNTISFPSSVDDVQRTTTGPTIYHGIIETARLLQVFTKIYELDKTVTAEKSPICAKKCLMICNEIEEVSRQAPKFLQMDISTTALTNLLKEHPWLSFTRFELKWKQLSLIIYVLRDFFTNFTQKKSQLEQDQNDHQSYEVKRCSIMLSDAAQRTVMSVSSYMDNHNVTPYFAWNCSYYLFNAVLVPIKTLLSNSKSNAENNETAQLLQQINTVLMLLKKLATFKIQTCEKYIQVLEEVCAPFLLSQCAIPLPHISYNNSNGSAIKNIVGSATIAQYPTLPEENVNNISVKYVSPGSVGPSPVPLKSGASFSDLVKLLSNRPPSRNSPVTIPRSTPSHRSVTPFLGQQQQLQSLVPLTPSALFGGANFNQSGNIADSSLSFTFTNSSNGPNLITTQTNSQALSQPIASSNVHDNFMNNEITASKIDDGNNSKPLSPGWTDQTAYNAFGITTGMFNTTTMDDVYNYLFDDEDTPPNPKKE"},
  "source": "patent US6306649",
  "key": {"[1]": {"target": "GAL4 DNA binding domain fused to p65(361-550) (Saccharomyces cerevisiae) (UniProt P04386)", "test": "activity in cells", "conditions": "[53,60,61 (printed Q read as G)]; SEAP reporter stably integrated in HT1080 B cells; 1 to 6 activation domains; protein in cells; protein details: C-terminal human p65(361-550); letters built from the parent sequence and the stated change"}, "[2]": {"target": "GAL4 DNA binding domain fused to VP16(411-490) (Saccharomyces cerevisiae) (UniProt P04386)", "test": "activity in cells", "conditions": "[53,60,61 (printed Q read as G)]; SEAP reporter stably integrated in HT1080 B cells; 1 to 4 activation domains; protein in cells; protein details: C-terminal HSV VP16 411-490; letters built from the parent sequence and the stated change"}},
  "note": "The exact form of at least one protein or probe is not confirmed.",
  "data": [
    {"sequence": "ATCGATGTTTTCTGAGTTACTTTTGTATCCCCACCCCCCCTCGAGCTTGCATGCCTGCAGGTCGGAGTACTGTCCTCCGAGCGGAGTACTGTCCTCCGAGCGGAGTACTGTCCTCCGAGCGGAGTACTGTCCTCCGAGCGGAGTACTGTCCTCCGAGCGCAGACTCTAGAGGATCCGAGAACATTTTGACACCCCCATAATATTTTTCCAGAATTAACAGTATAAATTGCATCTCTTGTTCAAGAGTTCCCTATCACTCTCTTTAATCACTACTCACAGTAACCTCAACTCCTGCCACAAGCTT (double strand) [5x GAL4 sites-IL2 minimal promoter (pLH-G5-IL2-SEAP)]", "values": [
      {"measurement": "activity on this sequence", "setting": "[1]", "result": "active"},
      {"measurement": "activity on this sequence", "setting": "[2]", "result": "active"}
    ]}
  ]
}
